For assay [1], the target named is T1, human α4β1 integrin (human) (UniProt P13612+P05556). Briefly: ELISA on L cells expressing α4β1 integrin; crude supernatants.
For assay [2], the target named is T1, human α4β1 integrin (human). Briefly: ELISA on L cells expressing human α4β1 integrin, in parallel with chimeric 21.6 antibody. On the technique in general: In an ELISA, binding on a coated surface is turned into a signal by an enzyme label.

Chains of the proteins cited; added tags and fusions are not shown. Lines headed by an entry give the natural chain unless they say otherwise; changes in a name come on top.
UniProt P13612: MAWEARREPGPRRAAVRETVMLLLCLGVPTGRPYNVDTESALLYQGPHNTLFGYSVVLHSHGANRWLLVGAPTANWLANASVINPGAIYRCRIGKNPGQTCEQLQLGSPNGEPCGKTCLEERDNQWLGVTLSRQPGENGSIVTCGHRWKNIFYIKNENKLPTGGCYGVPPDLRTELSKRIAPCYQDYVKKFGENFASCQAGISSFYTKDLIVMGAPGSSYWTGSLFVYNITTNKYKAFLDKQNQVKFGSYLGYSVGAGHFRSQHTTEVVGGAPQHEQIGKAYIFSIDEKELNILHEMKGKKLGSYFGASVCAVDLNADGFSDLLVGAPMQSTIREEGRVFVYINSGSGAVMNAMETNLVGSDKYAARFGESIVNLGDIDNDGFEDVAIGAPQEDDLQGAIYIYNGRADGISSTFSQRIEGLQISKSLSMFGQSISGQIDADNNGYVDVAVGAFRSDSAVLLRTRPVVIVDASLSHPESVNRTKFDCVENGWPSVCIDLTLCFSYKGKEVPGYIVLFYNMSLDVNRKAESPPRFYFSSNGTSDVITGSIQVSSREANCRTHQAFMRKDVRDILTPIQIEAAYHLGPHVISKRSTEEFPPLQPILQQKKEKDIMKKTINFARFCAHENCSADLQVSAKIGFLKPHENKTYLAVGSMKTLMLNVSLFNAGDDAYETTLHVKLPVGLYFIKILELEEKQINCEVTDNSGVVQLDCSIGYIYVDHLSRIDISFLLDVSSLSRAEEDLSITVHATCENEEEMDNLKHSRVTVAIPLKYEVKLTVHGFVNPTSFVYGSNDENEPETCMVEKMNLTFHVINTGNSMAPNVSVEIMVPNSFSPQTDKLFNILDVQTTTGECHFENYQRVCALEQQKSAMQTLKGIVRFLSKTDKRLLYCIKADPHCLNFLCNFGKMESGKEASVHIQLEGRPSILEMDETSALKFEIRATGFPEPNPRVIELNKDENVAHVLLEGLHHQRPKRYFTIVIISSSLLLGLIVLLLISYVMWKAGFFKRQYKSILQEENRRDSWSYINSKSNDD
UniProt P05556: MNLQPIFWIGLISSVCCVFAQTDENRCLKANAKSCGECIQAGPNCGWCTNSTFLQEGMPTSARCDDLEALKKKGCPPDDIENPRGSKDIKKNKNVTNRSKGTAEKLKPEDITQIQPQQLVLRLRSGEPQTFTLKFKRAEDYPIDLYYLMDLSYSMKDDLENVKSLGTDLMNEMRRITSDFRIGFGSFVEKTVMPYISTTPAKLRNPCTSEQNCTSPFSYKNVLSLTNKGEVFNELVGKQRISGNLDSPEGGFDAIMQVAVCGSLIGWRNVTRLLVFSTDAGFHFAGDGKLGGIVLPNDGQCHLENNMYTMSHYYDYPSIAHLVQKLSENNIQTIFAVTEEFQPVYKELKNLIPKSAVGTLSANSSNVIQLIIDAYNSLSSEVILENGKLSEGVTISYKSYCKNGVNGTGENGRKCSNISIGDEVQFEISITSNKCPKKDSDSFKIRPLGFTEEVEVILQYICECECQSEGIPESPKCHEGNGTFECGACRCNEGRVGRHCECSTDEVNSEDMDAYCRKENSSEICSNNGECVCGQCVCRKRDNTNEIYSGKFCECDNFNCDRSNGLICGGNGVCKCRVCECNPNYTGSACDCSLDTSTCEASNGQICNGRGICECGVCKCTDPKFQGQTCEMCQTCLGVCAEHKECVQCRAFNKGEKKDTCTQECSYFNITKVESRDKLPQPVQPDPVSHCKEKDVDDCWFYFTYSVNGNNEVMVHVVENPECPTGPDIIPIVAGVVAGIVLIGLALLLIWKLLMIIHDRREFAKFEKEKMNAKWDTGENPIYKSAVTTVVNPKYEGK

No constants are given. Whether binding was seen depends on the method and setting. Some entries that bind do so weakly or less than the wild type.

B1: reshaped human 21.6 antibody (La + Hb) (antibody, V domains shown)
VH: QVQLVQSGAEVKKPGASVKVSCKASGFNIKDTYIHWVRQAPGQGLEWMGRIDPANGYTKYDPKFQGRVTITADTSASTAYMELSSLRSEDTAVYYCAREGYYGNYGVYAMDYWGQGTLVTVSS
VL: DIQMTQSPSSLSASVGDRVTITCKTSQDINKYMAWYQQTPGKAPRLLIHYTSALQPGIPSRFSGSGSGRDYTFTISSLQPEDIATYYCLQYDNLWTFGQGTKVEIK
Regarding B1, the binding entry in assay [1] was “binds”.

B2: reshaped human 21.6 antibody (La + Hc) (antibody, V domains shown)
VH: QVQLVQSGAEVKKPGASVKVSCKASGFNIKDTYIHWVRQAPGQRLEWMGRIDPANGYTKYDPKFQGRVTITADTSASTAYMELSSLRSEDTAVYYCAREGYFGNYGVYAMDYWGQGTLVTVSS
VL: DIQMTQSPSSLSASVGDRVTITCKTSQDINKYMAWYQQTPGKAPRLLIHYTSALQPGIPSRFSGSGSGRDYTFTISSLQPEDIATYYCLQYDNLWTFGQGTKVEIK
For B2, the binding entry in assay [2] is “binds”.

The record behind these values is patent EP1759709B1 (Elan Pharmaceuticals Inc., dated 2013).
